According to the supplement of paper PMC8728848:
The list shows a part of the results.

Tests used:
Test in all cases: glycan array binding signal (z-score within array); higher = stronger binding
Conditions in all cases: glycan notation: IUPAC condensed, linker removed
[1] = molecular target: GlcNAc(b1-2)[GlcNAc(b1-6)]Man(a1-6)[GlcNAc(b1-4)][GlcNAc(b1-2)Man(a1-3)]Man(b1-4)GlcNAc(b1-4)GlcNAc
How it was run: (§1)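 The binding signal is a Z-score computed within each array. Data were drawn from 3228 arrays in the Consortium for Functional Glycomics database, restricted to those with a known protein sequence. Scores were averaged over arrays of the same protein sequence at different concentrations or buffers, and over linkers, and negative values can be taken as non-binding.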

GlcNAc(b1-3)Fuc = molecular target: GlcNAc(b1-3)Fuc
How it was run: as §1

GlcNAc(b1-3)Gal = molecular target: GlcNAc(b1-3)Gal
How it was run: as §1

[2] = molecular target: GlcNAc(b1-3)Gal(b1-3)GalNAc
How it was run: as §1

GlcNAc(b1-3)Gal(b1-4)Glc = molecular target: GlcNAc(b1-3)Gal(b1-4)Glc
How it was run: as §1

[3] = molecular target: GlcNAc(b1-3)Gal(b1-4)GlcNAc
How it was run: as §1

[4] = molecular target: GlcNAc(b1-3)Gal(b1-4)GlcNAc(b1-2)Man(a1-3)[GlcNAc(b1-3)Gal(b1-4)GlcNAc(b1-2)Man(a1-6)]Man(b1-4)GlcNAc(b1-4)GlcNAc
How it was run: as §1

[5] = molecular target: GlcNAc(b1-3)Gal(b1-4)GlcNAc(b1-2)Man(a1-3)[GlcNAc(b1-3)Gal(b1-4)GlcNAc(b1-2)Man(a1-6)]Man(b1-4)GlcNAc(b1-4)[Fuc(a1-6)]GlcNAc
How it was run: as §1

[6] = molecular target: GlcNAc(b1-3)Gal(b1-4)GlcNAc(b1-2)[GlcNAc(b1-3)Gal(b1-4)GlcNAc(b1-6)]Man(a1-6)[GlcNAc(b1-3)Gal(b1-4)GlcNAc(b1-2)Man(a1-3)]Man(b1-4)GlcNAc(b1-4)GlcNAc
How it was run: as §1

[7] = molecular target: GlcNAc(b1-3)Gal(b1-4)GlcNAc(b1-3)Gal(b1-4)GlcNAc
How it was run: as §1

[8] = molecular target: GlcNAc(b1-3)Gal(b1-4)GlcNAc(b1-3)Gal(b1-4)GlcNAc(b1-2)Man(a1-3)[GlcNAc(b1-3)Gal(b1-4)GlcNAc(b1-3)Gal(b1-4)GlcNAc(b1-2)Man(a1-6)]Man(b1-4)GlcNAc(b1-4)GlcNAc
How it was run: as §1

[9] = molecular target: GlcNAc(b1-3)Gal(b1-4)GlcNAc(b1-3)Gal(b1-4)GlcNAc(b1-2)Man(a1-3)[GlcNAc(b1-3)Gal(b1-4)GlcNAc(b1-3)Gal(b1-4)GlcNAc(b1-2)Man(a1-6)]Man(b1-4)GlcNAc(b1-4)[Fuc(a1-6)]GlcNAc
How it was run: as §1

[10] = molecular target: GlcNAc(b1-3)Gal(b1-4)GlcNAc(b1-3)Gal(b1-4)GlcNAc(b1-2)[GlcNAc(b1-3)Gal(b1-4)GlcNAc(b1-3)Gal(b1-4)GlcNAc(b1-6)]Man(a1-6)[GlcNAc(b1-3)Gal(b1-4)GlcNAc(b1-3)Gal(b1-4)GlcNAc(b1-2)Man(a1-3)]Man(b1-4)GlcNAc(b1-4)[Fuc(a1-6)]GlcNAc
How it was run: as §1

[11] = molecular target: GlcNAc(b1-3)Gal(b1-4)GlcNAc(b1-3)Gal(b1-4)GlcNAc(b1-3)Gal(b1-4)GlcNAc(b1-2)Man(a1-3)[GlcNAc(b1-3)Gal(b1-4)GlcNAc(b1-3)Gal(b1-4)GlcNAc(b1-3)Gal(b1-4)GlcNAc(b1-2)Man(a1-6)]Man(b1-4)GlcNAc(b1-4)GlcNAc
How it was run: as §1

[12] = molecular target: GlcNAc(b1-3)Gal(b1-4)GlcNAc(b1-3)Gal(b1-4)GlcNAc(b1-3)Gal(b1-4)GlcNAc(b1-2)Man(a1-3)[GlcNAc(b1-3)Gal(b1-4)GlcNAc(b1-3)Gal(b1-4)GlcNAc(b1-3)Gal(b1-4)GlcNAc(b1-2)Man(a1-6)]Man(b1-4)GlcNAc(b1-4)[Fuc(a1-6)]GlcNAc
How it was run: as §1

[13] = molecular target: GlcNAc(b1-3)Gal(b1-4)GlcNAc(b1-3)Gal(b1-4)GlcNAc(b1-3)Gal(b1-4)GlcNAc(b1-2)[GlcNAc(b1-3)Gal(b1-4)GlcNAc(b1-3)Gal(b1-4)GlcNAc(b1-3)Gal(b1-4)GlcNAc(b1-6)]Man(a1-6)[GlcNAc(b1-3)Gal(b1-4)GlcNAc(b1-3)Gal(b1-4)GlcNAc(b1-3)Gal(b1-4)GlcNAc(b1-2)Man(a1-3)]Man(b1-4)GlcNAc(b1-4)[Fuc(a1-6)]GlcNAc
How it was run: as §1

[14] = molecular target: GlcNAc(b1-3)Gal(b1-4)GlcNAc(b1-3)Gal(b1-4)GlcNAc(b1-3)Gal(b1-4)GlcNAc(b1-3)Gal(b1-4)GlcNAc(b1-2)Man(a1-3)[GlcNAc(b1-3)Gal(b1-4)GlcNAc(b1-3)Gal(b1-4)GlcNAc(b1-3)Gal(b1-4)GlcNAc(b1-3)Gal(b1-4)GlcNAc(b1-2)Man(a1-6)]Man(b1-4)GlcNAc(b1-4)GlcNAc
How it was run: as §1

[15] = molecular target: GlcNAc(b1-3)Gal(b1-4)GlcNAc(b1-3)Gal(b1-4)GlcNAc(b1-3)Gal(b1-4)GlcNAc(b1-3)Gal(b1-4)GlcNAc(b1-2)Man(a1-3)[GlcNAc(b1-3)Gal(b1-4)GlcNAc(b1-3)Gal(b1-4)GlcNAc(b1-3)Gal(b1-4)GlcNAc(b1-3)Gal(b1-4)GlcNAc(b1-2)Man(a1-6)]Man(b1-4)GlcNAc(b1-4)[Fuc(a1-6)]GlcNAc
How it was run: as §1

[16] = molecular target: GlcNAc(b1-3)Gal(b1-4)GlcNAc(b1-3)Gal(b1-4)GlcNAc(b1-3)Gal(b1-4)GlcNAc(b1-3)Gal(b1-4)GlcNAc(b1-2)[GlcNAc(b1-3)Gal(b1-4)GlcNAc(b1-3)Gal(b1-4)GlcNAc(b1-3)Gal(b1-4)GlcNAc(b1-3)Gal(b1-4)GlcNAc(b1-6)]Man(a1-6)[GlcNAc(b1-3)Gal(b1-4)GlcNAc(b1-3)Gal(b1-4)GlcNAc(b1-3)Gal(b1-4)GlcNAc(b1-3)Gal(b1-4)GlcNAc(b1-2)Man(a1-3)]Man(b1-4)GlcNAc(b1-4)[Fuc(a1-6)]GlcNAc
How it was run: as §1

B1: LF82 (Escherichia coli) (protein)
chain: ADWGPCRTASGDPFIFVTSFTKNIQNPTDNVTGQTYPDFYQWALGDKYSGVCECPSPNPTEARPTLYKTESTLAAGHNSTYFKITNNLEVSTRVYIANVGNVQVPFINKSNSQPGRECDQPTFGWTTGSKGQLSLYIAKPFVGEQNIPQTIIVSVFGTKKENVYSSVPISQVLLSGKVTVTQGCELAAGTSLDIDFGEYQAHDFKGRTGQPPQNVQKIQKELTFNCTNISDGVHIYLSLEGTPNAAYPSAISLGNADVGAVIEDGKGNILKPNDSNSLLEMNPGSLYEYVKRKVTTTITAYPVSTTGKLPAAGDYSGVATMHVELDGGGGGGGGGGATTDLGAKGTLKFSLKISQGHHHHHH
For B1, the “glycan array binding signal (z-score)” value [1] was -0.361, the “glycan array binding signal (z-score)” value (GlcNAc(b1-3)Fuc) was -0.845 and the “glycan array binding signal (z-score)” value (GlcNAc(b1-3)Gal) was -0.649. The “glycan array binding signal (z-score)” value [2] was 0.427, the “glycan array binding signal (z-score)” value (GlcNAc(b1-3)Gal(b1-4)Glc) was -0.481 and the “glycan array binding signal (z-score)” value [3] was 0.711. The “glycan array binding signal (z-score)” value [4] was -0.713, the “glycan array binding signal (z-score)” value [5] was 0.507 and the “glycan array binding signal (z-score)” value [6] was 0.577. For the same binder, the “glycan array binding signal (z-score)” value [7] was -0.288, the “glycan array binding signal (z-score)” value [8] was 1.79 and the “glycan array binding signal (z-score)” value [9] was -0.141. For the same binder, the “glycan array binding signal (z-score)” value [10] was -0.333, the “glycan array binding signal (z-score)” value [11] was -1.02 and the “glycan array binding signal (z-score)” value [12] was 0.644. The “glycan array binding signal (z-score)” value [13] was 0.097, the “glycan array binding signal (z-score)” value [14] was -1.09 and the “glycan array binding signal (z-score)” value [15] was 2.17. The “glycan array binding signal (z-score)” value [16] was 0.23.
